{
  "sequences": {"note": "Protein sequences, listed by entry. Tags and fused reporters are not part of them.", "UniProt P60322": "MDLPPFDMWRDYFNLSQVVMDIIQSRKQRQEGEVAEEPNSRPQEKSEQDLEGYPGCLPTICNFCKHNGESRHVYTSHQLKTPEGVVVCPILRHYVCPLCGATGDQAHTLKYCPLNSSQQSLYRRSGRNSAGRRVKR", "UniProt Q80U78": "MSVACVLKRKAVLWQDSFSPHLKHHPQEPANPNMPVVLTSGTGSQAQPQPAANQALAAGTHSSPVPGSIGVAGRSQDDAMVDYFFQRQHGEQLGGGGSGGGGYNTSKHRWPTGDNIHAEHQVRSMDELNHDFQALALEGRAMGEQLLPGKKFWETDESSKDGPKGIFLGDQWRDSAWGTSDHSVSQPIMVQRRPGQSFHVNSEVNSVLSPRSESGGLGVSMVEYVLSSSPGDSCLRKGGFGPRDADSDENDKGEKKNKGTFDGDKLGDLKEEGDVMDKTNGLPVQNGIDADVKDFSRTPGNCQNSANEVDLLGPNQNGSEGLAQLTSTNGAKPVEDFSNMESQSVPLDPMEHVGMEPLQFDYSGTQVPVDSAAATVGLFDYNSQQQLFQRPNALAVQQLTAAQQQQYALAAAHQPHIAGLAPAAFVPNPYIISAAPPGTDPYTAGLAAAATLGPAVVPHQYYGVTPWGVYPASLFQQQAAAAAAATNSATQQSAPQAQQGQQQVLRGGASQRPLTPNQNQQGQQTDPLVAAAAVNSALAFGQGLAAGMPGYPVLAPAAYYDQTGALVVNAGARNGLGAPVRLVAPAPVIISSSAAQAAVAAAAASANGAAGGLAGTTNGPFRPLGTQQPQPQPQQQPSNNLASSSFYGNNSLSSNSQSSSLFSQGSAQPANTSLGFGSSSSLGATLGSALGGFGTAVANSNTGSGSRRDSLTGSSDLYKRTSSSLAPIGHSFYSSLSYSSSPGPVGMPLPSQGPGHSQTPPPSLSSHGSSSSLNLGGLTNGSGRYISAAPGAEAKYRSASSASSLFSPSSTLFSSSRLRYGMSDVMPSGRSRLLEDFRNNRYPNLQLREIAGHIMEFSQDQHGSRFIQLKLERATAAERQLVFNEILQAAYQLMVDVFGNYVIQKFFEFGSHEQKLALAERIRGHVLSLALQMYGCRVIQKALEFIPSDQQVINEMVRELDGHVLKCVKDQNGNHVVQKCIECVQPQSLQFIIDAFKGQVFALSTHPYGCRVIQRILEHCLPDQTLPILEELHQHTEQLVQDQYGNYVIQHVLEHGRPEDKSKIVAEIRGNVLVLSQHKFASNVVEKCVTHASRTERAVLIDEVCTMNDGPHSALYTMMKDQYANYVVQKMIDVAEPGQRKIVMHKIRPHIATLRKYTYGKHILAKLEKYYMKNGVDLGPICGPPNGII", "UniProt Q80U58": "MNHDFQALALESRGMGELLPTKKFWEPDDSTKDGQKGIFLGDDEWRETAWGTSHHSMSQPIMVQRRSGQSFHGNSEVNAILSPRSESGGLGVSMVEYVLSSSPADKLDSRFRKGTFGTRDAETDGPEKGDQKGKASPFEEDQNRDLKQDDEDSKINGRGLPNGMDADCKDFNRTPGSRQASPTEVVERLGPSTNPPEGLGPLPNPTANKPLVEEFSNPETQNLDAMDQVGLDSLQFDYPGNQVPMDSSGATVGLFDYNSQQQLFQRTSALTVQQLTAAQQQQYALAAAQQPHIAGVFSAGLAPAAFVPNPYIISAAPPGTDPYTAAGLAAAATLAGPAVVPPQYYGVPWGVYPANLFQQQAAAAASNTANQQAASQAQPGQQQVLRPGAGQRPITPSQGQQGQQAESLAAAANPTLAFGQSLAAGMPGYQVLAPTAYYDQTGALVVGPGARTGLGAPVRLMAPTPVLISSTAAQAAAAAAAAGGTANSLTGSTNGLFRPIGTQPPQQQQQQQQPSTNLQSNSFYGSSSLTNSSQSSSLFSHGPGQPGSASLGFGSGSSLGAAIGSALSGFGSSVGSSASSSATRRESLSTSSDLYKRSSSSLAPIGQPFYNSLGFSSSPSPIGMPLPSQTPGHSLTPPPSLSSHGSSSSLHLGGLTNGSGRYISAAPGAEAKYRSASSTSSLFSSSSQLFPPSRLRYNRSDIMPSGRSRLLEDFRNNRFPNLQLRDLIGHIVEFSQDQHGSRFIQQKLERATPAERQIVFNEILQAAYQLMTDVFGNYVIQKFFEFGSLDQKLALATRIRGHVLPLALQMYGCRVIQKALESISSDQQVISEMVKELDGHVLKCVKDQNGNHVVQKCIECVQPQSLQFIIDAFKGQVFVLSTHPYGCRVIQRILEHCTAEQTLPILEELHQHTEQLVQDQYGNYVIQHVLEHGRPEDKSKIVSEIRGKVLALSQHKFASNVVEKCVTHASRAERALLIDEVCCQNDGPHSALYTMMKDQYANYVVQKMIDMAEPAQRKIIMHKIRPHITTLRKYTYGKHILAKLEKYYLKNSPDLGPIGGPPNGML"},
  "source": "paper PMC8271163",
  "molecular_target": "TAG-NANOS2 (N-terminal tagged NANOS2 protein) (mouse) (UniProt P60322)",
  "test": "affinity purification with mass spectrometry; TAG-NANOS2 immunoprecipitated with anti-GFP antibody cross-linked to Protein G magnetic beads from Nanos2^TAG/TAG against Nanos2^CTL SSC lines; IP without RNase; three replicates; label-free quantitation; hits at greater than four times enrichment and p value < 0.05",
  "note": "No constants are given. Whether binding was seen depends on the method and setting. Binding seen in cells or lysates may run through a third protein. Here binding means that the protein was enriched with, or labelled near, the bait; the list need not be complete. No binding means not detected with the bait.",
  "data": [
    {"substance": "PUM1 (from UniProt Q80U78 1-1189)", "values": [
      {"measurement": "binding", "value": "no binding"}
    ]},
    {"substance": "PUM2 (from UniProt Q80U58 1-1066)", "values": [
      {"measurement": "binding", "value": "no binding"}
    ]}
  ]
}
